From PubChem BioAssay record AID1080 (Emory University Molecular Libraries Screening Center, 2008).

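A cell line overexpressing EP4 prostanoid receptors, stimulated with a low (about EC15) PGE2 dose; cAMP read by HTRF FRET after a short room-temperature incubation. Compounds were tested at 20 µM final. A low (about EC15) PGE2 dose was present. Percent cAMP induction as a fraction of the 1 µM PGE2 response, averaged over three replicates; a higher value means more cAMP.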

Values are in %. Common to all entries: measured here: EP4 receptor counter-screen. This is a side read-out of the assay, for part of the compounds, not drawn at random.

structure | condition | cAMP induction (%)
COc1ccc(C2=Nn3c(nnc3C3CCCCC3)SC2)cc1OC | percent of 1 uM PGE2 response; plus low (about EC15) PGE2 agonist | 6.953
CC(C)c1cc(=O)oc2c3c4c(cc12)CCCN4CCC3 | percent of 1 uM PGE2 response; plus low (about EC15) PGE2 agonist | -7.89
CCC(=O)N1CCN(c2nc(-c3ccccc3)c3c(c2C#N)CCCC3)CC1 | percent of 1 uM PGE2 response; plus low (about EC15) PGE2 agonist | -8.783
CCOC(=O)c1c(NC(=O)CSC(=S)N(C)C)sc(C)c1C | percent of 1 uM PGE2 response; plus low (about EC15) PGE2 agonist | -8
COC(=O)c1nc(NC(=O)C(C)(C)C)n[nH]1 | percent of 1 uM PGE2 response; plus low (about EC15) PGE2 agonist | 9.687
CCCCOc1cc(C)nc(NCc2ccccc2)n1 | percent of 1 uM PGE2 response; plus low (about EC15) PGE2 agonist | -3.543
CC(C)(Sc1ccc(CCN(CCCCC2CCCCC2)C(=O)NC2CCCCC2)cc1)C(=O)O | percent of 1 uM PGE2 response; plus low (about EC15) PGE2 agonist | -5.737
c1ccc(Cc2nnc(Sc3ccccc3)c3ccccc23)cc1 | percent of 1 uM PGE2 response; plus low (about EC15) PGE2 agonist | 45.09
Cc1cc(SCC(=O)c2ccccc2)nc2ccccc12 | percent of 1 uM PGE2 response; plus low (about EC15) PGE2 agonist | 1.873
CCn1c2ccccc2c2nc3ccccc3nc21 | percent of 1 uM PGE2 response; plus low (about EC15) PGE2 agonist | 2.497
O=S1(=O)N=C(N(CCO)/N=C/C=C/c2ccccc2)c2ccccc21 | percent of 1 uM PGE2 response; plus low (about EC15) PGE2 agonist | 3.907
O=c1cc(N2CCCCC2)c(-c2ccccc2)nn1Cc1ccc(F)cc1 | percent of 1 uM PGE2 response; plus low (about EC15) PGE2 agonist | 0.02667
CCOC(=O)c1c(NC(=O)c2c(Br)cnn2CC)sc(C)c1C | percent of 1 uM PGE2 response; plus low (about EC15) PGE2 agonist | 6.913
CSc1nnc2c3ccccc3c3ccccc3c2n1 | percent of 1 uM PGE2 response; plus low (about EC15) PGE2 agonist | 7.813
O=C1CCC(C(=O)OCC(=O)N2N=C3/C(=C/c4ccccc4)CCCC3C2c2ccccc2)N1 (configuration not stated) | percent of 1 uM PGE2 response; plus low (about EC15) PGE2 agonist | -12.63
CCOC(=O)c1c(NC(=O)c2ccncc2)sc(C)c1C | percent of 1 uM PGE2 response; plus low (about EC15) PGE2 agonist | -10.07
COc1cc(S(=O)(=O)N(Cc2cccnc2)Cc2ccco2)ccc1-n1cnnn1 | percent of 1 uM PGE2 response; plus low (about EC15) PGE2 agonist | -9.163
FC(F)(F)c1cccc(/C=N/NC(=S)NC2CCCCC2)c1 | percent of 1 uM PGE2 response; plus low (about EC15) PGE2 agonist | -11.72
COc1ccccc1N(C(=O)NCc1ccccc1)C1=NCC(C)S1 (configuration not stated) | percent of 1 uM PGE2 response; plus low (about EC15) PGE2 agonist | 0.6533
O=C(N/N=C/c1cccc(F)c1)NC1CCCCC1 | percent of 1 uM PGE2 response; plus low (about EC15) PGE2 agonist | -7.413
CN1CCCN(C(=O)Cc2c(Cl)cccc2Cl)c2nc3ccccc3nc21 | percent of 1 uM PGE2 response; plus low (about EC15) PGE2 agonist | -8.933
COc1cccc2[nH]c3c(N4CCCC(C)C4)ncnc3c12 (configuration not stated) | percent of 1 uM PGE2 response; plus low (about EC15) PGE2 agonist | -11.95
Cc1cc(C)nc(SCc2nnc(SCC#N)n2-c2cccc(Cl)c2)n1 | percent of 1 uM PGE2 response; plus low (about EC15) PGE2 agonist | 5.017
CCCCCCn1c(COc2ccccc2F)nnc1SCC(=O)N1c2ccccc2NC(=O)C1(C)C | percent of 1 uM PGE2 response; plus low (about EC15) PGE2 agonist | -5.77
COc1ccc(-c2cc(-c3n[nH]c(=S)n3-c3cccc4ccccc34)[nH]n2)cc1 | percent of 1 uM PGE2 response; plus low (about EC15) PGE2 agonist | -10.95
CC(C)Sc1cc(N2CCOCC2)nc(-c2ccc(Cl)cc2)n1 | percent of 1 uM PGE2 response; plus low (about EC15) PGE2 agonist | 9.533
CC1=C/C(=C(/c2ccc(O)c(C)c2)c2ccccc2C(=O)O)C=CC1=O | percent of 1 uM PGE2 response; plus low (about EC15) PGE2 agonist | 2.147
Cc1ccccc1C(=O)Nc1ccccc1N1CCCCC1 | percent of 1 uM PGE2 response; plus low (about EC15) PGE2 agonist | 2.207
Cn1cccc1/C=C1\CC(C(C)(C)C)C/C(=C\c2cccn2C)C1=O (configuration not stated) | percent of 1 uM PGE2 response; plus low (about EC15) PGE2 agonist | 1.833
Cn1c(=O)c2c(nc(SCC(=O)c3cccs3)n2Cc2ccc(F)cc2)n(C)c1=O | percent of 1 uM PGE2 response; plus low (about EC15) PGE2 agonist | 71.58
CN(N=O)c1ccc(O)c(O)c1 | percent of 1 uM PGE2 response; plus low (about EC15) PGE2 agonist | 15.8

Repeated from the top, 2 entries:

structure,condition,cAMP induction (%)
COc1ccc(C2=Nn3c(nnc3C3CCCCC3)SC2)cc1OC,percent of 1 uM PGE2 response; plus low (about EC15) PGE2 agonist,6.953
CC(C)c1cc(=O)oc2c3c4c(cc12)CCCN4CCC3,percent of 1 uM PGE2 response; plus low (about EC15) PGE2 agonist,-7.89